Hit rate of the full screen: of about 1,400 compounds, about 50 (4%) were called active.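 Rule for the calls: active = fitted curve reaches 30% CPE protection at or below the top valid dose, with every test run called active; inconclusive = test runs disagree, some active and some not; inactive = every test run inactive, including effects in the wrong direction.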 The list shows a part of the results. Measured potencies and affinities stand elsewhere.
Assay: antiviral rescue of DENV2-infected BHK-21 cells – cell-based, ATP luminescence, cherry-pick, dose response (AID 687031);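 note: 0% = infected DMSO wells and 100% = uninfected cell wells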
Conditions: BHK-21 DENV2 CPE protection, 5 d; at 19.5 µM (top of the series) unless noted

SMILES | CPE protection (higher = active)
CN(C)C(=O)c1cccc(-c2ccc3c(c2)[C@@H]2[C@@H](CCN2C(=O)Cc2ccncc2)[C@@H](CO)N3)c1 | inactive: -30.7%
O=C1Nc2ccccc2SC1c1ccccc1 (centres undefined) | inactive: 22.8%
CC1(C)CC(NC(=O)COc2ccccc2Cl)CC(C)(C)N1 | inactive: 17.7%
COc1ccc(C)cc1N(CC(=O)Nc1ccc(S(=O)(=O)N2CCOCC2)cc1)S(C)(=O)=O | inactive: -13.8%
COc1ccc(S(=O)(=O)Nc2ccc3c(c2)C(=O)N([C@@H](C)CO)C[C@H](C)[C@H](CN(C)C(=O)Nc2ccc(C(F)(F)F)cc2)OCCCC[C@H](C)O3)cc1 | inactive: -7.43%
O=C(N[C@@H]1CC[C@H](CCNC(=O)C2CCCCC2)O[C@@H]1CO)c1ccccn1 | inactive: -27.2%
CCOC(=O)C1(Cc2ccccc2C)CCCN(C(=O)CCc2c(C)noc2C)C1 (centres undefined) | inactive: 12.5%
Cc1c(C(=O)NCCCN2CCOCC2)sc2nc(-c3ccccc3)cn12 | inactive: 21.8%
COC(=O)C1=C(C)N(Cc2cccc(C(F)(F)F)c2)C(=NCC2CC2)NC1c1ccc(F)cc1 (centres undefined) | inactive: 1.54%
C[C@@H]1CCCCO[C@@H](CN(C)Cc2ccc3c(c2)OCO3)[C@H](C)CN([C@@H](C)CO)C(=O)c2cc(NS(=O)(=O)c3cccs3)ccc2O1 | inactive: 21.8% [at 21 µM]
CCCC1CC(CCc2ccccc2)OS(=O)(=O)N1 (centres undefined) | inactive: 10.6%
CCOC(=O)C1(C)CCN1C(=O)c1cccc(OC)c1 (centres undefined) | inactive: -2.42%
CS(=O)(=O)NCc1ccc(C(=O)NCCOc2ccccc2)cc1 | inactive: -5.24%
Cc1noc(C)c1NC(=O)Nc1ccc2c(c1)CC(=O)N([C@@H](C)CO)C[C@H](C)[C@@H](CN(C)C(=O)Nc1ccccc1)O2 | inactive: 4.8%
C[C@H]1[C@H](c2ccccc2)C[C@@H](C(=O)O)C1(C)C | inactive: -2.52%
CN(C)CCCN1c2ccccc2Sc2ccc3ccccc3c21 | inactive: 6.88% [at 10 µM]
CS(=O)(=O)N1[C@@H]2c3ccc(-c4ccc(F)cc4)c(=O)n3C[C@H]1[C@H](CO)[C@H]2C(=O)NCC1CC1 | inactive: -2.6%
CCCCCC(=O)N1C[C@@H](O)[C@H](n2cc(COC(=O)c3ccccc3)nn2)C[C@@H]1c1ccc(C)cc1 | inactive: -2.79%
CCCCCCN1CCN(C2CN(Cc3ccc(F)cc3)S(=O)(=O)C2)CC1 (centres undefined) | inactive: -15.2%
CNC(=O)C[C@@H]1CC[C@@H]2[C@H](COc3ccc(NC(=O)c4ccc(F)c(F)c4)cc3C(=O)N2C)O1 | inactive: 5.16%
COc1ccccc1CCNS(=O)(=O)CCNC(=O)c1ccc2c(c1)OCO2 | inactive: -7.14%
Cc1ccc(Nc2nc(-c3sc(N)nc3C)cs2)cc1 | inactive: 2.24%
CC1(NC(=O)c2cc(Cl)nc3ccccc23)CCS(=O)(=O)C1 (centres undefined) | inactive: 27.2%
CN1C(=O)c2cc(NC(=O)NC3CCCC3)ccc2OC[C@H]2O[C@@H](CC(=O)NCC3CC3)CC[C@@H]21 | inactive: -8.11% [at 23.5 µM]
CCC1(c2ccccc2)NC(=O)N(CC(=O)Nc2ccccc2C(=O)N2CCCCC2)C1=O (centres undefined) | inactive: 9.49%

3 of these compounds, set out differently:
SMILES,CPE protection (higher = active)
O=C1Nc2ccccc2SC1c1ccccc1 (centres undefined),inactive: 22.8%
COc1ccc(C)cc1N(CC(=O)Nc1ccc(S(=O)(=O)N2CCOCC2)cc1)S(C)(=O)=O,inactive: -13.8%
COC(=O)C1=C(C)N(Cc2cccc(C(F)(F)F)c2)C(=NCC2CC2)NC1c1ccc(F)cc1 (centres undefined),inactive: 1.54%

The list goes on.

SMILES | CPE protection (higher = active)
C/C=C/c1ccc([C@H]2[C@@H](CO)N(C(=O)C3CCC3)[C@@H]2CNC(=O)NC(C)C)cc1 | inactive: 2.65%
COc1cc2cc(CCCOC(=O)CCCC(=O)O)oc(=O)c2cc1OC | inactive: 24.9%
C[C@H](CO)N1C[C@H](C)[C@H](CN(C)C(=O)NC2CCCCC2)Oc2ccc(NC(=O)Cn3cnnn3)cc2C1=O | inactive: -15.6%
Cc1cccc(C(=O)OCC(=O)NCc2ccc(Cl)cc2)c1 | inactive: -0.771% [at 10 µM]
CC(C)(C(=O)N1CCC1(C)C(=O)NS(=O)(=O)c1cccc(Cl)c1)c1ccccc1 (centres undefined) | inactive: -9.26%
CC1(C(=O)NCc2cccc(C(F)(F)F)c2)CCN1Cc1cc2ccccc2o1 (centres undefined) | inactive: 5.83%
Cc1ccc(S(=O)(=O)N(c2nc(NC(C)C)nc(NC(C)C)n2)n2cnnc2)cc1 | inactive: -12.8%
NNC(=O)c1ccc(-c2ccccc2F)cc1 | inactive: 21.4%
C[C@@H]1CCCCO[C@@H](CN(C)C(=O)Nc2ccc(C(F)(F)F)cc2)[C@H](C)CN([C@H](C)CO)C(=O)c2cc(NC(=O)Cc3ccccc3)ccc2O1 | inactive: -1.75%
CN1c2ccc(Br)cc2[C@@H]2[C@@H](CCN2C(=O)C2CCCC2)[C@H]1CO | inactive: 9.19%
CNC(=O)C[C@H]1CC[C@@H]2[C@H](COc3ccc(NC(=O)c4ccc(F)c(F)c4)cc3C(=O)N2C)O1 | inactive: 16.4% [at 21 µM]
O=C(CN1CCc2cc3c(cc2C1)OCCCO3)Nc1ccccc1 | inactive: 17.2%
O=C1N2CCCCC1(c1ccccc1)CCCC2 | inactive: -8.51%
Cc1noc(C)c1S(=O)(=O)N(C)C[C@H]1OCCCC[C@H](C)Oc2ccc(NC(=O)NC(C)C)cc2C(=O)N([C@H](C)CO)C[C@@H]1C | inactive: -0.808%
Clc1cc(Br)ccc1OCCCn1ccnc1 | inactive: -13.3%
CN1c2ccc(Br)cc2[C@H]2[C@H](CCN2S(=O)(=O)c2cccc(F)c2)[C@H]1CO | inactive: -9.67% [at 18 µM]
N#CCSc1ccccc1NC(=O)CN1C(=O)C(=O)N(Cc2ccccc2)C1=O | inactive: -15.2%
Cn1cc(CC(=O)Nc2ccc(Nc3cccnc3)cc2)c2ccccc21 | inactive: -10.5%
CC(=O)NCCC(=O)Nc1cc(S(=O)(=O)N2CCCCC2)ccc1N1CCN(C)CC1 | inactive: -12%
C[C@@H]1CCCCO[C@@H](CN(C)CC2CCCCC2)[C@H](C)CN([C@H](C)CO)C(=O)c2cc(NC(=O)Nc3cccc4ccccc34)ccc2O1 | inactive: -40.5%
O=C1[C@H](Cc2ccccc2)NCC=CC[C@H](c2ccc(Cl)cc2)N1Cc1ccccc1 | inactive: -22.6%
CNC[C@H]1Oc2c(NS(=O)(=O)c3ccc(Cl)cc3)cccc2C(=O)N([C@@H](C)CO)C[C@@H]1C | inactive: -2.5%
C[C@@H]1CN([C@@H](C)CO)C(=O)c2cc(NS(=O)(=O)c3ccc(F)cc3)ccc2O[C@@H](C)CCCCO[C@@H]1CN(C)C(=O)CCCN(C)C | inactive: 13.4%
O=C1c2ccccc2C(=O)N1CC(=O)N1c2ccccc2Sc2ccc(C(F)(F)F)cc21 | inactive: 2.11%
C[C@H]1CN([C@@H](C)CO)C(=O)Cc2cc(NS(=O)(=O)c3cccs3)ccc2O[C@H]1CN(C)Cc1ccc2c(c1)OCO2 | inactive: -4.98%

SMILES | CPE protection (higher = active)
O=C(COC(=O)CNC(=O)c1ccc(Cl)cc1)Nc1ncc(C(F)(F)F)cc1Cl | inactive: 9.18%
COc1ccc(S(=O)(=O)N2CCN(CC(=O)NC3CC3)CC2)cc1 | inactive: -34%
OC(c1ccccc1)C(NCc1ccccc1)c1ccccc1 (centres undefined) | inactive: -17.8%
COc1ccc(OC)c(CN2C(=O)CN(S(C)(=O)=O)CC2(C)C(=O)NCc2ccccc2)c1 (centres undefined) | inactive: -25.8%
Cc1cccc(N(C(=O)Cn2nnc3ccccc32)C(C(=O)NC(C)(C)C)c2ccsc2)c1 (centres undefined) | inactive: -6.52%
O=C(NNC(=O)c1ccccc1O)c1ccccc1O | inactive: -25.7%
CN(C)c1ccc2c(c1)[C@H]1C[C@@H](CC(=O)NCc3ccc(Oc4ccccc4)cc3)O[C@H](CO)[C@H]1O2 | inactive: -5.45%
O=C(O)CNC(=O)c1ccc(NS(=O)(=O)c2ccc3ccccc3c2)cc1 | inactive: 11.9%
Cc1ccc(NC(=O)CN2CCC(NC(=O)c3cccc(F)c3)CC2)cc1C | inactive: 12.5%
CC(=O)Nc1cccc(C(=O)OCC(=O)Nc2ccc(Cl)cn2)c1 | inactive: 6.48%
COc1ccccc1CCN=C(N)NS(=O)(=O)c1ccc(F)cc1 | inactive: 4.03%
Cc1ccc(CN(C)c2ccc(S(=O)(=O)N3CCCC3)cn2)cc1 | inactive: 5.91%
C[C@@H]1CN([C@H](C)CO)C(=O)Cc2cc(NC(=O)Cn3cnnn3)ccc2O[C@@H]1CN(C)Cc1ccc(C(=O)Nc2ccccc2N)cc1 | inactive: 21.3% [at 18 µM]
Cc1ccccc1NC(=O)Cc1nc(COC(=O)C(C)(C)Oc2ccc(Cl)cc2)cs1 | inactive: 19.4%
O=C(NCc1cc(C(F)(F)F)cc(C(F)(F)F)c1)C1CC(c2cccc(F)c2)=NO1 (centres undefined) | inactive: 1.22%
Cc1c(Cl)cccc1NC(=O)CC1Oc2ccccc2NC1=O (centres undefined) | inactive: -12.8%
C#CCNC(=O)C[C@@H]1C[C@@]2(C(=O)OC)CCCCC=C2N(Cc2cccc3ccccc23)C1=O | inactive: -8.6%
C/C=C/c1ccc([C@@H]2[C@@H](CO)N(C(C)=O)[C@@H]2CNC(=O)CC2CC2)cc1 | inactive: 4.22% [at 21 µM]
Cc1cccc(NC(=O)c2cccc(S(=O)(=O)N(C)C3CCCCC3)c2)n1 | inactive: -10.4%
C[C@@H]1CN([C@H](C)CO)C(=O)Cc2cc(NC(=O)CCCCCC(=O)Nc3ccccc3N)ccc2O[C@@H]1CN(C)S(C)(=O)=O | inactive: -8.4% [at 16 µM]
Cc1noc(C)c1NC(=O)Nc1ccc2c(c1)C(=O)N([C@@H](C)CO)C[C@@H](C)[C@@H](CN(C)C)OCCCC[C@@H](C)O2 | inactive: -7.08%
Cc1ccc(S(=O)(=O)N(C)C[C@H]2Oc3ccc(NC(=O)Nc4ccc(F)cc4)cc3CC(=O)N([C@H](C)CO)C[C@@H]2C)cc1 | inactive: -14% [at 21 µM]
CCN(CC(=O)Nc1cc(Cl)ccc1-n1cncn1)Cc1nc2ccccc2c(=O)[nH]1 | inactive: 1.83%
CC(C)(OC(=O)c1ccc(C#N)cc1)c1cc2ccccc2c(=O)o1 | inactive: -16.1%

Source: PubChem BioAssay AID687031 (Broad Institute, 2013)
